# According to PubChem BioAssay AID2685 (National Center for Advancing Translational Sciences (NCATS), 2010):
# In all, about 320,000 compounds went through this assay and about 2,100 (0.66%) were called active. The shares of active, inactive and inconclusive entries below differ from those in the screen. The call rests on the fitted dose curve; in most records, active means well fitted inhibition curve with a large enough effect in the signal ratio, with a control signal flat (not every such curve was filed as active); inconclusive means small, poorly fitted or top-dose-only effect, or effect the other way, or a change in a side signal; inactive means flat fitted curve, though single readings scatter; the % refers to the signal ratio. Where the call is inconclusive, the potency comes from a doubtful curve fit.
# Experiment: qHTS Assay for Lipid Storage Modulators in Drosophila S3 Cells
# Settings: BODIPY lipid droplet fluorescence, 18-24 h, cells fed with added oleic acid; lipid storage change, negative = inhibition: at 46.1 µM (top of the series) unless noted
# How it was run: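 Laser-scanning cytometry quantifies lipid droplet accumulation (500–530 nm total intensity; droplet/cell object ratio) in oleic acid-fed (400 uM added) Drosophila S3 cells treated with a concentration series. 20 uM Triacsin C defined 100% inhibition.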
# On the % scale 0 is the no-effect control and ±100 the full control effect; potency means the concentration at half of the fitted maximal effect.
SMILES,Potency,"lipid storage change, negative = inhibition"
CCN(CC)S(=O)(=O)c1cc(C(=O)n2cccn2)c(Cl)cc1Cl,active: 4.61 µM,–
O=C(Nc1ccccc1F)c1ccc(-c2cccc([N+](=O)[O-])c2)o1,"inconclusive: 23.1 µM [falling, single point]",–
CC(=O)SCCC(=O)Nc1ccccc1,–,inconclusive: 15.3%
O=C(CCc1ccc(O)cc1)c1c(O)cc(O)cc1O,–,inconclusive: -9.1%
CN(c1ccc(C(=O)Nc2ccc(CC#N)cc2)cc1)S(C)(=O)=O,"inconclusive: 6.51 µM [falling, single point]",–
COc1ccc(S(=O)(=O)NCCN2CCOCC2)cc1[N+](=O)[O-],"inconclusive: 18.4 µM [activator, single point]",–
O=C(OCc1nnc(-c2ccccc2)o1)c1cccc(-n2cnnn2)c1,–,inconclusive: -19.7%
Cc1cc(C)n(CCOc2ccc(Cl)cc2Cl)n1,"inconclusive: 4.11 µM [falling, single point]",–
N/C(=N\OC(=O)c1cccs1)c1ccccc1,–,inconclusive: 11.7%
Cc1ccc(S(=O)(=O)NCc2ccc(C(=O)N3CCN(c4ccc([N+](=O)[O-])cc4)CC3)cc2)cc1,"inconclusive: 29.1 µM [falling, partial curve, poor fit]",–
O=C(Nc1ccc(N=Nc2ccccc2)c(NC(=O)C2CCCO2)c1)C1CCCO1 (centres undefined),"inconclusive: 29.1 µM [falling, single point]",–
Cc1nc2cc(NS(=O)(=O)c3ccccc3)ccc2n1C,–,inconclusive: -11.6%
Cc1[nH]c2ccccc2c1C(C[N+](=O)[O-])c1cccc(O)c1 (centres undefined),–,inconclusive: -20.1%
COc1ccc(CN2CCC(CNS(=O)(=O)c3cccc(C(F)(F)F)c3)CC2)cc1,–,inconclusive: -32%
COc1ccc(S(=O)(=O)N2CCCN(CCC(=O)Nc3cccc(C(F)(F)F)c3)CC2)cc1,–,inconclusive: 57.6%
Cn1c(=O)[nH]c(=O)c2c1nc(SCCN1CCCCC1)n2Cc1ccccc1,–,inactive: 18.7%
Cc1c(OC(C)C(=O)NC(Cc2c[nH]c3ccc(O)cc23)C(=O)O)ccc2c1oc(=O)c1ccccc12 (centres undefined),–,inconclusive: 49.2%
CC(c1ccccc1)n1c(CCCO)nc2ccccc21 (centres undefined),–,inactive: 0.218%
Cc1ccnc(NC(=O)C(C)n2cc([N+](=O)[O-])cn2)c1 (centres undefined),–,inconclusive: 17.5%
COC(=O)c1ccc(OC)c(CSc2nnc(-c3ccc(C(C)(C)C)cc3)o2)c1,–,inconclusive: -16.3%
COc1ccc2c(CC(=O)N[C@@H](Cc3c[nH]c4ccccc34)C(=O)O)cc(=O)oc2c1,–,inconclusive: 37%
N#Cc1ccc(NCC(=O)Nc2ccc(S(=O)(=O)N3CCCCC3)cc2)cc1,"inconclusive: 0.164 µM [activator, full curve, poor fit]",–
Cc1ccc(S(=O)(=O)N2CCOCC2)cc1NC(=O)COC(=O)C1=COCCO1,–,inconclusive
Cc1ccc(-c2csc(Nc3ccccn3)n2)cc1,"inconclusive: 25.9 µM [activator, single point]",–
COc1ccc(S(=O)(=O)CCC(=O)N2CCN(c3cccc(Cl)c3)CC2)cc1,"inconclusive: 11.6 µM [falling, partial curve]",–

SMILES,Potency,"lipid storage change, negative = inhibition"
COCCNC(=O)c1ccc2c(=O)n(Cc3ccco3)c(SCC(=O)Nc3ccc(OC)cc3OC)nc2c1,–,inconclusive: 19.4%
CCN(Cc1nc2ccccc2c(=O)[nH]1)C(=O)c1cc(C2CC2)nn1-c1ccccc1,–,inconclusive: -3.44%
Cc1cc(C)cc(NC(=O)CCc2ccc(C)o2)c1,"inconclusive: 29.1 µM [activator, single point]",–
CC(C)CC(=O)Nc1ccc(-c2cn3ccsc3n2)cc1,"inconclusive: 1.64 µM [activator, partial curve]",–
COc1ccc(-c2c(-c3cc(OC)cc(OC)c3)n(C)c3ccc(-c4ccc(OC)cc4F)cc23)cc1,–,inconclusive: 12.9%
CC(C)c1ccc(C(C(=O)NC2CCCC2)N(C(=O)CNC(=O)c2ccco2)c2cccnc2)cc1 (centres undefined),–,inconclusive: 12.4%
COc1ccccc1C(=O)OCCN1CCOCC1,"inconclusive: 0.92 µM [falling, full curve, poor fit]",–
O=C(CN1C(=O)NC2(CCCCCC2)C1=O)NCc1cccs1,–,inactive: 1.88%
CCN(CC)CCCn1c(SCC(=O)Nc2cccc(F)c2)nnc1-c1ccoc1C,"inconclusive: 0.461 µM [falling, partial curve, poor fit]",–
O=S(=O)(NCCc1ccccc1)c1cnc(Cl)c(Br)c1,"inconclusive: 6.51 µM [falling, single point]",–
O=C(CN(c1ccccc1Cl)S(=O)(=O)c1ccccc1)NCc1ccccc1,"inconclusive: 0.58 µM [activator, single point]",–
Cc1noc(C)c1CSCC(=O)Nc1nnc(CC(C)C)s1,–,inconclusive: 16.9%
CS(=O)(=O)N(CC(=O)N1CCN(c2ccccc2)CC1)c1ccc(Cl)c(C(F)(F)F)c1,–,inconclusive: 314%
O=C(CSc1nc2ccc(Nc3nc(N4CCCC4)nc(N4CCCC4)n3)cc2s1)NCc1ccco1,–,inconclusive: 28.9%
Cc1nc2ccccc2n1C(=O)c1cc(-c2ccc(Br)cc2)nc2ccccc12,–,inconclusive: 5.04%
CCCc1cc(NC(=O)COC(=O)c2nccnc2N)n(-c2ccccc2)n1,–,inconclusive: 15.8%
COc1ccc(CNC(=O)CNC(=O)c2cccs2)c(OC)c1,"inconclusive: 0.58 µM [activator, partial curve, poor fit]",–
C=CCOc1ccc(/C=N/NC(=O)CN(c2cc(Cl)ccc2OC)S(=O)(=O)c2ccc(C)c([N+](=O)[O-])c2)cc1,"inconclusive: 0.259 µM [activator, partial curve, poor fit]",–
CC1=C(C(=O)OC2CCC(C)CC2)C(c2ccc(O)c([N+](=O)[O-])c2)NC(=O)N1 (centres undefined),"inconclusive: 18.4 µM [falling, single point]",–
COCCNC(=S)N1CCN(c2ccc(Cl)cc2)CC1,–,inconclusive: 48.9%
COc1ccc(S(=O)(=O)Nc2nc3ccccc3nc2NCC2CCCO2)cc1 (centres undefined),–,inconclusive: 26.9%
Cn1c(SCC(=O)O)nnc1C1CCCCC1,"inconclusive: 32.6 µM [falling, partial curve]",–
Fc1ccc(Br)cc1/C=N/n1cnnc1,"inconclusive: 0.461 µM [activator, full curve]",–
Cc1nccn1CCC(=O)Nc1ccc(Cl)cc1,–,inconclusive: 2.81%
Cc1cc(NC(=O)COC(=O)CSCc2ccc(Cl)c(Cl)c2)no1,–,inconclusive: 11.9%

SMILES,Potency,"lipid storage change, negative = inhibition"
CC1c2ccsc2CCN1S(=O)(=O)c1cccs1 (centres undefined),–,inconclusive: 23.4%
O=C(/C=C/c1ccc([N+](=O)[O-])s1)N1CCCC1,–,inconclusive: -49.6%
CCOCCCNC(=O)c1ccc(CS(=O)(=O)Cc2ccc(C)cc2)o1,–,inconclusive: -11.3%
Cc1ccc2nc(SC(C(=O)c3ccccc3)c3ccccc3)nc(C)c2c1 (centres undefined),"inconclusive: 29.1 µM [rising, single point]",–
CCOC(=O)C1CCCN(c2c(NCCc3cccc(C)c3)c(=O)c2=O)C1 (centres undefined),–,inconclusive: -5.76%
COc1cc(/C=N\Nc2ccc([N+](=O)[O-])cn2)ccc1OCC(=O)O,–,inconclusive: -20.7%
C/C(N)=C(/C#N)C(=O)CSc1ccccc1F,–,inconclusive: 50.9%
c1cncc(-c2nc(NCC3CCCO3)c3ccccc3n2)c1 (centres undefined),–,inconclusive: -73.3%
CCC(C)Sc1ccc([C@H]2N[C@@](Cc3ccccc3)(C(=O)OC)[C@H]3C(=O)N(C)C(=O)[C@@H]23)cc1 (some centres undefined),–,inactive: -6.01%
COCCNC(=O)C1CC(c2ccc(F)cc2)=NO1 (centres undefined),"inconclusive: 29.1 µM [falling, single point]",–
COc1ccc2cc(C(=O)C3CCCN(C(=O)Cc4c(C)noc4C)C3)ccc2c1 (centres undefined),"inconclusive: 2.91 µM [falling, partial curve, poor fit]",–
Cc1ccc(NCC(=O)N/N=C\c2ccc([N+](=O)[O-])o2)cc1,"inconclusive: 20.6 µM [falling, single point]",–
Cc1cc(C(=O)NN)c(C)o1,–,inconclusive: -15.7%
CCN(c1ccccc1)S(=O)(=O)c1ccc2c(c1)C(C)(C)C(=O)N2C,"inconclusive: 32.6 µM [falling, single point]",–
COc1ccc(CC(=O)NNS(=O)(=O)c2ccc(F)cc2)cc1OC,–,inconclusive: 13.3%
CCN(Cc1cccs1)C(=O)c1cccc(S(=O)(=O)N2CCN(C)CC2)c1,–,inconclusive: 12.7%
COc1ccc(/C=C/C(=O)NC(=S)Nc2ccc(S(=O)(=O)Nc3cc(OC)ncn3)cc2)cc1,–,inconclusive: -3.6%
COc1ccc(C2/C(=C(/O)c3ccccc3)C(=O)C(=O)N2c2ccccn2)cc1 (centres undefined),–,inconclusive: -38%
CCn1c(C(=O)O)c(CC(=O)NC2CCCCCC2)c2ccccc21,–,inconclusive: 0.605%
Cn1nc(Cc2n[nH]c(=S)n2C)c2ccccc2c1=O,–,inconclusive: -0.968%
COC1=C(Nc2ccc(C)cc2)C(=O)c2ccccc2C1=O,"inconclusive: 20.6 µM [cytotoxic, partial curve]",–
O=C(C[n+]1cc(-c2ccc(F)cc2)n2c1CCC2)Nc1nc(-c2ccc(F)cc2)cs1,"inconclusive: 0.517 µM [activator, full curve, poor fit]",–
Cc1ccc(-n2ncc3c(SCC(=O)NNC(=O)C(C)C)ncnc32)cc1,–,inconclusive: 7.61%

# Random excerpt: 3 entries already listed.
SMILES,Potency,"lipid storage change, negative = inhibition"
Cn1nc(Cc2n[nH]c(=S)n2C)c2ccccc2c1=O,–,inconclusive: -0.968%
COc1cc(/C=N\Nc2ccc([N+](=O)[O-])cn2)ccc1OCC(=O)O,–,inconclusive: -20.7%
O=C(/C=C/c1ccc([N+](=O)[O-])s1)N1CCCC1,–,inconclusive: -49.6%
